Assay results as given in patent publication US9447108B2 (SZEGEDI TUDOMÁNYEGYETEM, priority 2013, dated 2016).

Protein sequences, listed by entry. Tags and fused reporters are not part of them. Lines headed by an entry give the natural chain unless they say otherwise; changes in a name come on top.
UniProt P33533, whole entry: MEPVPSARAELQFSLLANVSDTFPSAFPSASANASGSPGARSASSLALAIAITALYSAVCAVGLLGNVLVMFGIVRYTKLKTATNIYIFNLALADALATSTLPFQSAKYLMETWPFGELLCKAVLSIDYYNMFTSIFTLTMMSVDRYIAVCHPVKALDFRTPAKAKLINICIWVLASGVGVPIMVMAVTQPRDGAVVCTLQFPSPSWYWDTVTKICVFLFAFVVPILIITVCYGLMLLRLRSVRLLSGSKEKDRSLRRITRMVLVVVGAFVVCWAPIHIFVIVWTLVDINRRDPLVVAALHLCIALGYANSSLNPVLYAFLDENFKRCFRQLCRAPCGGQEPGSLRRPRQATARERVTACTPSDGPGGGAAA

Biological target: T1, δ-opioid receptors (Rattus norvegicus, UniProt P33533)
T1 construct: A crude membrane fraction was prepared from Wistar rat brains and spinal cords; from tissue; host or cells: Wistar rat brain (without cerebellum), crude membrane fraction
Assay: Receptor binding assay, [3H]Ile5,6-deltorphin-2 displacement in rat brain membranes

## CC[C@H](C)[C@H](NC(=O)[C@H](CCC(=O)O)NC(=O)[C@H](Cc1ccccc1)NC(=O)[C@@H](C)NC(=O)[C@@H](N)Cc1ccc(O)cc1)C(=O)N[C@H](C(=O)NCC(N)=O)[C@@H](C)CC [Ile^5'6-deltorphin-2, Tyr-D-Ala-Phe-Glu-Ile-Ile-Gly-NH2, reference compound]
  Ki: 0.96 ± 0.01 nM
